{"sequences": {"note": "Protein sequences, listed by entry. Tags and fused reporters are not part of them.", "UniProt P08684, whole entry": "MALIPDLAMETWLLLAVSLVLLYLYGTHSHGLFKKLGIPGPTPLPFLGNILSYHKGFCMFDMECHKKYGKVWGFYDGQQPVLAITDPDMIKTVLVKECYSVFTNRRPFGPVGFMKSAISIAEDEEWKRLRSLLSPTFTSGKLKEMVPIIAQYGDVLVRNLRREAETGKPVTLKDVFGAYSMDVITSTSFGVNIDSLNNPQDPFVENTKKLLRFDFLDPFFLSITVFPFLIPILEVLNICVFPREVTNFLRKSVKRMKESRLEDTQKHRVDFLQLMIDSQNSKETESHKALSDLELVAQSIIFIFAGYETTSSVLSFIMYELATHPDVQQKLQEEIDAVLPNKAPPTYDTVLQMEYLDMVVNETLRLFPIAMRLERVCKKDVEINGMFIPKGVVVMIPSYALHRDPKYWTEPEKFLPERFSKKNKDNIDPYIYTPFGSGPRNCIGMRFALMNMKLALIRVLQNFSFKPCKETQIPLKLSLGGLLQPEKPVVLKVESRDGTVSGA"}, "source": "ChEMBL document CHEMBL5390228", "about": "“Unnatural Endotype B PPAPs as Novel Compounds with Activity against Mycobacterium tuberculosis” (J Med Chem, 2023)", "molecular_target": "CYP3A4 (Homo sapiens, UniProt P08684)", "test": "in vitro", "details": "heparg", "data": [{"smiles": "CC(C)=CCC[C@]1(C)[C@@H](CC=C(C)C)C[C@]2(CC=C(C)C)C(=O)C(CC=C(C)C)=C(O)[C@@]1(C(=O)C(C)C)C2=O", "values": [{"measurement": "fold induction at 96 h, 0.5 µM", "result": 8}]}]}
